# The other results are listed elsewhere or left out.
# Protein sequences, listed by entry. Tags and fused reporters are not part of them.
# UniProt Q0JBA9, entry or part of it: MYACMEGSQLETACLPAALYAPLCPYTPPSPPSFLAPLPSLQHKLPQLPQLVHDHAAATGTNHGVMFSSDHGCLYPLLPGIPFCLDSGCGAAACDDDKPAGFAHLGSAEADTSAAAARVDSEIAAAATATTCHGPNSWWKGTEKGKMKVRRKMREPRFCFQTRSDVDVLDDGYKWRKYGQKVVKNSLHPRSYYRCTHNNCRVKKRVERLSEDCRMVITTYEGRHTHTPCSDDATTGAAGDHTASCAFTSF
# Target: OsWRKY34 (Oryza sativa, UniProt Q0JBA9 1-250)
# Assay: protein-binding microarray (RPBM); PBS, 2% BSA, 51.3 ng/ul salmon testes DNA, 50 uM zinc acetate, 200 nM TF, 25 C, 1 h; high values mean tight binding
# Settings: protein: recombinant; tags: N-terminal polyhistidine and DsRed monomer fusion (pET32a); label: CyDye5-dUTP incorporated in the synthesized complementary strand; 3' TTTTT single-stranded linker to array surface; dsDNA, one strand shown
# Summary of the method: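 For the binding signal, per-feature fluorescence intensity was read in arbitrary units on an Axon 4000B scanner. Before scanning, a 2% BSA-blocked custom Agilent array made double-stranded with Cy5-dUTP was washed after 1 h at 25 °C with 200 nM protein and 50 µM zinc acetate. The proteins were Ni–NTA-purified transcription factors with N-terminal polyhistidine and DsRed fusions, expressed in E. coli BL21-CodonPlus.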
row,Sequence,binding signal
1,TAAGCCGAACCTTTCATTTGATAATTGTCACTTGTTCTTGCGGAGTCACCTAGTGCAG,8520 fluorescence intensity (a.u.)
2,TGTCCTGCGTAATTAGCACATCACATTCAGCTTTCTGCTTCGGAGTCACCTAGTGCAG,8970 fluorescence intensity (a.u.)
3,CTCCGCCGTCGTTCCTGCAGCTTCCGCCGCATCCTCGCCGCGGAGTCACCTAGTGCAG,9250 fluorescence intensity (a.u.)
4,ATGAATAGTACATTATGCGTGACTTATGTTTTTTATTTTTCGGAGTCACCTAGTGCAG,8520 fluorescence intensity (a.u.)
5,TGCCAACAATGGTGTAAATTTCTATCTCCATCCTTTATTTCGGAGTCACCTAGTGCAG,9930 fluorescence intensity (a.u.)
6,GTTCTGGTTGGGATCGATTTCTTCTTCCCCTTTGTTGCTTCGGAGTCACCTAGTGCAG,9700 fluorescence intensity (a.u.)
7,GATGTGGGTAGTATGGATTTTTTTTTCTGTTTGTCCTCCACGGAGTCACCTAGTGCAG,12900 fluorescence intensity (a.u.)
8,GTATATTCTGATTCAATTATAATTTCCCCATCGATCATTTCGGAGTCACCTAGTGCAG,9110 fluorescence intensity (a.u.)
9,ATGTACATCTCTCGCGATCCAATCCATGTCTCGTCTCTATCGGAGTCACCTAGTGCAG,9620 fluorescence intensity (a.u.)
10,GAATCGTAACCCATGTTTTTAAATTTTTATTTTTGTTCGGCGGAGTCACCTAGTGCAG,8470 fluorescence intensity (a.u.)
11,CCTGCAGAAGTCTCCATCCTTGCATCACACGTACACATCTCGGAGTCACCTAGTGCAG,11500 fluorescence intensity (a.u.)
12,ACCCACTTTGTTGTCTAATTTTTGTAGACTGGACAAGTATCGGAGTCACCTAGTGCAG,8730 fluorescence intensity (a.u.)
13,GCCCGTGCACATCAACGCCGCCACCTCCACCAAATTCGGCCGGAGTCACCTAGTGCAG,11400 fluorescence intensity (a.u.)
14,AGACGCATTAATTTGTTCACCACTCGATCCTCGCCATTACCGGAGTCACCTAGTGCAG,8270 fluorescence intensity (a.u.)
15,ATGACAGTTTTTTCAGTAATTCTCTCTCTTTTTTTCAGCACGGAGTCACCTAGTGCAG,9940 fluorescence intensity (a.u.)
16,TGATGCCACCCTGTATATCCTATGGATCCCAACTATGGCTCGGAGTCACCTAGTGCAG,8140 fluorescence intensity (a.u.)
17,TTTTCGTTTCCAAAGTTTGTTGTTGTTCTTCGTGTTGATTCGGAGTCACCTAGTGCAG,8670 fluorescence intensity (a.u.)
18,CTCCATCCCGCGGCGGCCGTGAGCACCAACACTCACGCATCGGAGTCACCTAGTGCAG,9230 fluorescence intensity (a.u.)
19,ATTACCAGTAGTTTATAGTGTTTGCTTTTTCTCATATATTCGGAGTCACCTAGTGCAG,11100 fluorescence intensity (a.u.)
20,TGAGTTTATTTTTTATATGGTTGGTTCGTGTGAGTTCCTACGGAGTCACCTAGTGCAG,8280 fluorescence intensity (a.u.)
21,GTCTTATCATCTCTCTCCCCTTTCCATTTTTACCTCTATCCGGAGTCACCTAGTGCAG,8100 fluorescence intensity (a.u.)

row,Sequence,binding signal
1,ACCTAGCTACTCTCGATCGATCGACCGCCCGCCCGCCATGCGGAGTCACCTAGTGCAG,10400 fluorescence intensity (a.u.)
2,ACGACACTCTGCTCCTTTCTCTCACACACACACTCTGCACCGGAGTCACCTAGTGCAG,9210 fluorescence intensity (a.u.)
3,GACATTTTCTTCCCCTCGAAGATATCCATGTGTATGTCAACGGAGTCACCTAGTGCAG,8270 fluorescence intensity (a.u.)
4,CGGTTAATATTTTTGTTCTTTACAGACTCTTCATTCATTTCGGAGTCACCTAGTGCAG,8380 fluorescence intensity (a.u.)
5,TTATTCATCTAAGTCTATGTTCTTATTTTGTTTGACAGGTCGGAGTCACCTAGTGCAG,9300 fluorescence intensity (a.u.)
6,AAGATGTGCAGAACTCCCCGTGTTTTTTTCTTGGATTGTTCGGAGTCACCTAGTGCAG,8480 fluorescence intensity (a.u.)
7,TGCTAATTTTATTGTTAATTTAACTCGTATCTTGTGGCAACGGAGTCACCTAGTGCAG,8250 fluorescence intensity (a.u.)
8,TGTGTGGTCGGGTCGGCTCAGCTGGAGTGAGGTCGAGGAGCGGAGTCACCTAGTGCAG,8640 fluorescence intensity (a.u.)
9,TGCGTGTTTTATGATTACCTATGTTTCTGTTGTGTTTTAACGGAGTCACCTAGTGCAG,15300 fluorescence intensity (a.u.)
10,ATTTTGATGGCGTTTCTTTTTTTTTTTTGTGGCACAGTTCCGGAGTCACCTAGTGCAG,8360 fluorescence intensity (a.u.)
11,GGGACGACACATGCTATACATCTCTCCAAATTGTTATCCACGGAGTCACCTAGTGCAG,10300 fluorescence intensity (a.u.)
12,TATTTCTTGCCACTAAAGTGCCCAATTGTTTGGTTGTGTACGGAGTCACCTAGTGCAG,8710 fluorescence intensity (a.u.)
13,CCCACATTTTCCCGGCCGTCGTTCCCGCCGACGAGCTCTTCGGAGTCACCTAGTGCAG,9560 fluorescence intensity (a.u.)
14,ACACCTCATCAACATGTACACTCCTATGTAGGTCAGCAGCCGGAGTCACCTAGTGCAG,10800 fluorescence intensity (a.u.)
15,AATATTCTTTCGCTATTTGCTGAAACATTGTTTTTATATACGGAGTCACCTAGTGCAG,8610 fluorescence intensity (a.u.)
16,ATCATCCAACCGACGGTCCAACTGTCCAACTGTCCAGCCCCGGAGTCACCTAGTGCAG,9340 fluorescence intensity (a.u.)
17,ACCCTAACCCGCGATCCGCCTCCGCCGCCGCCACCACCACCGGAGTCACCTAGTGCAG,9140 fluorescence intensity (a.u.)
18,CCATTCTCCCTGTACTTGCATGCTTCAGTTCTTGATTTGCCGGAGTCACCTAGTGCAG,9220 fluorescence intensity (a.u.)
19,CCTAGTCGTTTTAAATACCCAGCATATATATCATAGTATCCGGAGTCACCTAGTGCAG,9060 fluorescence intensity (a.u.)
20,GATCGTTCGCGATCAATCCGCCGCCGCCGCTTTTCTCCTCCGGAGTCACCTAGTGCAG,8360 fluorescence intensity (a.u.)
21,GTTCAATAGAGTTATCATTTACCAACTTGTGATTTATTATCGGAGTCACCTAGTGCAG,8750 fluorescence intensity (a.u.)

row,Sequence,binding signal
1,CTTGTAGTAGGATGTGCATTCCTTTGTCTCGTCCTTTCTCCGGAGTCACCTAGTGCAG,8630 fluorescence intensity (a.u.)
2,TCTCCCGAGCGGCGCCGTCCCTCCCTCCGCCCGCCGTCCCCGGAGTCACCTAGTGCAG,9980 fluorescence intensity (a.u.)
3,GCATTACAGCCAAACCCCGTTATGTCCGTTTTCTCAAACTCGGAGTCACCTAGTGCAG,9160 fluorescence intensity (a.u.)
4,TTTGCATTAGTTAGTCAGTCCATGCTATTTATAACAGAACCGGAGTCACCTAGTGCAG,8650 fluorescence intensity (a.u.)
5,GCGGGGAGGGCTCAAGCGATCGAGGGCGCGTGGTGGGGAGCGGAGTCACCTAGTGCAG,8980 fluorescence intensity (a.u.)
6,GTACTTGTCACTTGATCTGTTTCTGTCGCCTCATTTATCTCGGAGTCACCTAGTGCAG,12100 fluorescence intensity (a.u.)
7,TTAGTAATCTTCATTTGTTTTGCATACTAGTTTTGCATATCGGAGTCACCTAGTGCAG,8100 fluorescence intensity (a.u.)
8,ATATTTAGGTTCGTTGGTCTTGATTTATATACACTCTAAACGGAGTCACCTAGTGCAG,8040 fluorescence intensity (a.u.)
9,TGTGCTATGTTATTGGTTTCACTATTCACGTACTATGCTTCGGAGTCACCTAGTGCAG,10900 fluorescence intensity (a.u.)
10,TTTCTTCTTCTTTGTTGTTGTTGTTGTTGTGTGTTCTTCTCGGAGTCACCTAGTGCAG,12000 fluorescence intensity (a.u.)
11,GGGCATTGAGTGGTGGGGACGTGTGGGAGGCAGGCGGAGACGGAGTCACCTAGTGCAG,9540 fluorescence intensity (a.u.)
12,ACTATTTTATACCCACATTTCTCTCTCTCTCTTGATTGTACGGAGTCACCTAGTGCAG,9000 fluorescence intensity (a.u.)
13,GGAGGGGTTGGAAAAATTCGGTGTTCGTGGCCGCCTTCACCGGAGTCACCTAGTGCAG,13400 fluorescence intensity (a.u.)
14,ACATATTTAAAAAAGTCAACGACGTCAAATATTTAGGGGACGGAGTCACCTAGTGCAG,8680 fluorescence intensity (a.u.)
15,ACCGGCCCGCAGCTCCGGTAGCTTTTCTCTTCCTTTTCGCCGGAGTCACCTAGTGCAG,10600 fluorescence intensity (a.u.)
16,ATTCCTGTCAGAATTCTATATTTTTCCTATTTCTCCGTTTCGGAGTCACCTAGTGCAG,9320 fluorescence intensity (a.u.)
17,CTCTGCTGCTTCCTCTTCTCCCTCTCCATCGCCGTCGCCGCGGAGTCACCTAGTGCAG,8410 fluorescence intensity (a.u.)
18,CCAACCTCTCTGCACAAACATCCATCCATCCATCCATTTGCGGAGTCACCTAGTGCAG,8440 fluorescence intensity (a.u.)
19,ATCATTTCTGCAAGTGCATATTGTTCTGCTGCTCCTTTTGCGGAGTCACCTAGTGCAG,8950 fluorescence intensity (a.u.)
20,CTCTCTGAAATTTTCTCGGATTTTTTGGAGCTCAATTCCTCGGAGTCACCTAGTGCAG,9100 fluorescence intensity (a.u.)
21,TTCATTTCTGTTCCATTTCCCATCCATCATATCGCCTCGTCGGAGTCACCTAGTGCAG,9280 fluorescence intensity (a.u.)

# Rewritten bar-delimited: part of the list above.
row | Sequence | binding signal
20 | TGAGTTTATTTTTTATATGGTTGGTTCGTGTGAGTTCCTACGGAGTCACCTAGTGCAG | 8280 fluorescence intensity (a.u.)
9 | TGCGTGTTTTATGATTACCTATGTTTCTGTTGTGTTTTAACGGAGTCACCTAGTGCAG | 15300 fluorescence intensity (a.u.)
21 | GTTCAATAGAGTTATCATTTACCAACTTGTGATTTATTATCGGAGTCACCTAGTGCAG | 8750 fluorescence intensity (a.u.)

# The list continues.

row,Sequence,binding signal
1,ATATATATATATATATATATATATATATATATGCGCAGAGCGGAGTCACCTAGTGCAG,9140 fluorescence intensity (a.u.)
2,GCCGTCTGCTGCATCTATCACAAACCTGACCCTAGTTACCCGGAGTCACCTAGTGCAG,9530 fluorescence intensity (a.u.)
3,TTTGCGCTCCGATTTCGCTCGCTCTCCGTGCCAACGCCGCCGGAGTCACCTAGTGCAG,8150 fluorescence intensity (a.u.)
4,ATTGACATATTTCTACCCGCATAGCTAGTTAAAATTTCCACGGAGTCACCTAGTGCAG,8200 fluorescence intensity (a.u.)
5,GGCCTATTCCGATTCCGACTTCCACCCTTTCGTTTTGGTACGGAGTCACCTAGTGCAG,10200 fluorescence intensity (a.u.)
6,TAGCAACATCTTATCAAGTTATTCTTGCCATACTCTCTCCCGGAGTCACCTAGTGCAG,9030 fluorescence intensity (a.u.)
7,TTCTGGTCCTGAACTCCGCCGTATTACTTCTGATCATCTCCGGAGTCACCTAGTGCAG,10300 fluorescence intensity (a.u.)
8,TTCTTTTCAGTGGTTGGGTTTGGACGATTAGCCAAATGTACGGAGTCACCTAGTGCAG,8620 fluorescence intensity (a.u.)
9,CCCACTCCACCACTGGCCCCTACAGCGTCATTGCAAGAATCGGAGTCACCTAGTGCAG,8310 fluorescence intensity (a.u.)
10,CCACGCGTCCCTCGACCGCACCGCCTCCTAGCCGCCGTCGCGGAGTCACCTAGTGCAG,9070 fluorescence intensity (a.u.)
11,TCATTTATTCACATGTCTTTTCATTTTGCAACCAAATTTACGGAGTCACCTAGTGCAG,11600 fluorescence intensity (a.u.)
12,CTCTCTCACACACACTCCCTCTATATATATTTGTGCGCGCCGGAGTCACCTAGTGCAG,12700 fluorescence intensity (a.u.)
13,CTGTATTCATTAGGGTGGGACTGTATACTATAGTTATTATCGGAGTCACCTAGTGCAG,15700 fluorescence intensity (a.u.)
14,ACTACATACGGAGTACATGTCAAATCCTCTGCGCAAAATCCGGAGTCACCTAGTGCAG,8360 fluorescence intensity (a.u.)
15,AGAAAAACATCATCTTTGGCCACTACCTGCATCTCCACGTCGGAGTCACCTAGTGCAG,9000 fluorescence intensity (a.u.)
16,ATGGCGAAAATGGGAGTGGGGAGGAGAAAGGTGGTGGGGCCGGAGTCACCTAGTGCAG,8490 fluorescence intensity (a.u.)
17,ACTCCACTCCACCGCCGCCGCCTATATAACCCACCTCCACCGGAGTCACCTAGTGCAG,10100 fluorescence intensity (a.u.)
18,CCACTCACCCCTAACCCTAGCCGCTGTCGCCCGCCTCCCCCGGAGTCACCTAGTGCAG,8660 fluorescence intensity (a.u.)
19,TGTTCGCACCGCTACTGATGTCCAGCTTCCAGCCGCTCACCGGAGTCACCTAGTGCAG,8620 fluorescence intensity (a.u.)
20,TAGGGGTATTTAGATTTTTTTTATGATTTATTAACTAGTACGGAGTCACCTAGTGCAG,9820 fluorescence intensity (a.u.)
21,CATGTCGCATGATCTTTTTCGCCCCTACACCATCAACAACCGGAGTCACCTAGTGCAG,10200 fluorescence intensity (a.u.)

# Looked up one by one from the entries so far:
row,Sequence,binding signal
14,ACTACATACGGAGTACATGTCAAATCCTCTGCGCAAAATCCGGAGTCACCTAGTGCAG,8360 fluorescence intensity (a.u.)
17,ACTCCACTCCACCGCCGCCGCCTATATAACCCACCTCCACCGGAGTCACCTAGTGCAG,10100 fluorescence intensity (a.u.)
20,TAGGGGTATTTAGATTTTTTTTATGATTTATTAACTAGTACGGAGTCACCTAGTGCAG,9820 fluorescence intensity (a.u.)
